Assay results reported in PMC11871287.
No constants are given. Whether binding was seen depends on the method and setting. In cells and extracts the contact can be indirect. Some binding calls cover weakened binding; strength is not graded here. For some assays here: Where a sequence is shown, tags or fusion partners need not be part of it.

Tests used:
[1] = biological target: T1, endogenous kinesin-binding protein (KBP) of hippocampal neurons (rat (endogenous in hippocampal neurons)) (UniProt Q4G074); assay: proximity ligation; 14 DIV hippocampal neurons transfected with mCherry, mCh-CHMP2b or mCh-CHMP2b^intron5, fixed; Duolink PLA with anti-KIAA1279 (rabbit) and anti-mCherry (mouse); puncta counted in the soma; 2 h vehicle or BIC/4AP
T1 sequence: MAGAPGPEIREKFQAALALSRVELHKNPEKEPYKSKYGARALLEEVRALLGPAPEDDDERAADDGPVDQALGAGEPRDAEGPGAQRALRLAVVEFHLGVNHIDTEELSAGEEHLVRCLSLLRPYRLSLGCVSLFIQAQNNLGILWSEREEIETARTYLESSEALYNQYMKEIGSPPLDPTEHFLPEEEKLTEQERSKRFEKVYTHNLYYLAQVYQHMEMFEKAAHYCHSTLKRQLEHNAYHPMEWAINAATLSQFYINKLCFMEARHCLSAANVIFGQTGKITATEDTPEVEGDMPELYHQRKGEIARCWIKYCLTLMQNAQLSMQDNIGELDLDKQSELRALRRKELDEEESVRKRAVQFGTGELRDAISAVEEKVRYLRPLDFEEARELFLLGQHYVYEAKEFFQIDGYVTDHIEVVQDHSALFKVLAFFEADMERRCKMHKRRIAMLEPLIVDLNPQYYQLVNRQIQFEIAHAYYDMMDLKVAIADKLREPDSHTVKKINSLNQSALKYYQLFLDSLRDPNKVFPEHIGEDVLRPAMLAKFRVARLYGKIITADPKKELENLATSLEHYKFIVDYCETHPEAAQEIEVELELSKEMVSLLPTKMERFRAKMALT

[2] = biological target: T2, EGFP-KBP (kinesin-binding protein, KIAA1279) (human) (UniProt Q96EK5); assay: co-IP; N2a cells cotransfected with EGFP-KBP and mCherry, mCh-CHMP2b or mCh-CHMP2b^intron5; lysis in 50 mM Tris, 150 mM NaCl, 1% Triton X-100, 0.5% deoxycholic acid; GFP-Trap agarose beads overnight at 4°C; blots probed with mCherry and GFP antibodies
T2 sequence: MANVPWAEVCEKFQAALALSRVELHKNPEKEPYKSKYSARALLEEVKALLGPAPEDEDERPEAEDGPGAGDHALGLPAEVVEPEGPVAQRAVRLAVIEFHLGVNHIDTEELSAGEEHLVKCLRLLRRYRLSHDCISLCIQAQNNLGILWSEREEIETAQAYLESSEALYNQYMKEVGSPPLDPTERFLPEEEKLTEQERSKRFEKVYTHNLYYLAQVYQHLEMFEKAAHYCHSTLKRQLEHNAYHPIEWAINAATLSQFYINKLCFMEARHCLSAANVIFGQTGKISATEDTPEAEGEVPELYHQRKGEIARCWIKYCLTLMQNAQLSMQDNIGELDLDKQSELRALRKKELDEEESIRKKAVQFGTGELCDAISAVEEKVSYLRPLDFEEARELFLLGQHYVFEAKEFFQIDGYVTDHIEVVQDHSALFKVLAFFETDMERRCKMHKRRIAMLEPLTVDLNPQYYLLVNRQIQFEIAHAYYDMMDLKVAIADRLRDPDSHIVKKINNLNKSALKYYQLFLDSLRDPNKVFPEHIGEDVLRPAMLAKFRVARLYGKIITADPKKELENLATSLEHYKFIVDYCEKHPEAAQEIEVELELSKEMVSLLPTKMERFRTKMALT

## mCh-CHMP2b (WT charged multivesicular body protein 2b) (from UniProt Q9UQN3-1 1-213)
[1]
  binding: binds
[2]
  binding: binds
